The labels stand for the following.
B1: Cystatin-M (protein, UniProt Q15828 29-149, looked up)
Cystatin-M: RPQERMVGELRDLSPDDPQVQKAAQAAVASYNMGSNSIYYFRDTHIIKAQSQLVAGIKYFLTMEMGSTDCRKTRVTGDHVDLTTCPLAAGAQQEKLRCDFEVLVVPWQNSSQLLKHNCVQM
B2: Cytoskeleton-associated protein 2 (protein, UniProt Q8WWK9 1-683, looked up)
Cytoskeleton-associated …: MSTPAVPQDLQLPPSQRAQSAFKEQRRQKLKEHLLRRKTLFAYKQENEMLSSSRDQRVVTSEDQVQEGTKVLKLKTKMADKENMKRPAESKNNTVVGKHCIPLKPSNELTNSTVVIDTHKPKDSNQTPHLLLTEDDPQSQHMTLSQAFHLKNNSKKKQMTTEKQKQDANMPKKPVLGSYRGQIVQSKINSFRKPLQVKDESSAATKKLSATIPKATKPQPVNTSSVTVKSNRSSNMTATTKFVSTTSQNTQLVRPPIRSHHSNTRDTVKQGISRTSANVTIRKGPHEKELLQSKTALSSVKTSSSQGIIRNKTLSRSIASEVIARPASLSNDKLMEKSEPVDQRRHTAGKAIVDSRSAQPKETSEERKARLSEWKAGKGRVLKRPPNSVVTQHEPAGQNEKPVGSFWTTMAEEDEQRLFTEKVNNTFSECLNLINEGCPKEDILVTLNDLIKNIPDAKKLVKYWICLALIEPITSPIENIIAIYEKAILAGAQPIEEMRHTIVDILTMKSQEKANLGENMEKSCASKEEVKEVSIEDTGVDVDPEKLEMESKLHRNLLFQDCEKEQDNKTKDPTHDVKTPNTETRTSCLIKYNVSTTPYLQSVKKKVQFDGTNSAFKELKFLTPVRRSRRLQEKTSKLPDMLKDHYPCVSSLEQLTELGRETDAFVCRPNAALCRVYYEADTT
B3: Desmoglein-1 (protein, UniProt Q02413 50-1049, looked up)
Desmoglein-1: EWIKFAAACREGEDNSKRNPIAKIHSDCAANQQVTYRISGVGIDQPPYGIFVINQKTGEINITSIVDREVTPFFIIYCRALNSMGQDLERPLELRVRVLDINDNPPVFSMATFAGQIEENSNANTLVMILNATDADEPNNLNSKIAFKIIRQEPSDSPMFIINRNTGEIRTMNNFLDREQYGQYALAVRGSDRDGGADGMSAECECNIKILDVNDNIPYMEQSSYTIEIQENTLNSNLLEIRVIDLDEEFSANWMAVIFFISGNEGNWFEIEMNERTNVGILKVVKPLDYEAMQSLQLSIGVRNKAEFHHSIMSQYKLKASAISVTVLNVIEGPVFRPGSKTYVVTGNMGSNDKVGDFVATDLDTGRPSTTVRYVMGNNPADLLAVDSRTGKLTLKNKVTKEQYNMLGGKYQGTILSIDDNLQRTCTGTININIQSFGNDDRTNTEPNTKITTNTGRQESTSSTNYDTSTTSTDSSQVYSSEPGNGAKDLLSDNVHFGPAGIGLLIMGFLVLGLVPFLMICCDCGGAPRSAAGFEPVPECSDGAIHSWAVEGPQPEPRDITTVIPQIPPDNANIIECIDNSGVYTNEYGGREMQDLGGGERMTGFELTEGVKTSGMPEICQEYSGTLRRNSMRECREGGLNMNFMESYFCQKAYAYADEDEGRPSNDCLLIYDIEGVGSPAGSVGCCSFIGEDLDDSFLDTLGPKFKKLADISLGKESYPDLDPSWPPQSTEPVCLPQETEPVVSGHPPISPHFGTTTVISESTYPSGPGVLHPKPILDPLGYGNVTVTESYTTSDTLKPSVHVHDNRPASNVVVTERVVGPISGADLHGMLEMPDLRDGSNVIVTERVIAPSSSLPTSLTIHHPRESSNVVVTERVIQPTSGMIGSLSMHPELANAHNVIVTERVVSGAGVTGISGTTGISGGIGSSGLVGTSMGAGSGALSGAGISGGGIGLSSLGGTASIGHMRSSSDHHFNQTIGSASPSTARSRITKYSTVQYSK
B4: DNA topoisomerase 1 (protein, UniProt P11387 2-765, looked up)
DNA topoisomerase 1: SGDHLHNDSQIEADFRLNDSHKHKDKHKDREHRHKEHKKEKDREKSKHSNSEHKDSEKKHKEKEKTKHKDGSSEKHKDKHKDRDKEKRKEEKVRASGDAKIKKEKENGFSSPPQIKDEPEDDGYFVPPKEDIKPLKRPRDEDDADYKPKKIKTEDTKKEKKRKLEEEEDGKLKKPKNKDKDKKVPEPDNKKKKPKKEEEQKWKWWEEERYPEGIKWKFLEHKGPVFAPPYEPLPENVKFYYDGKVMKLSPKAEEVATFFAKMLDHEYTTKEIFRKNFFKDWRKEMTNEEKNIITNLSKCDFTQMSQYFKAQTEARKQMSKEEKLKIKEENEKLLKEYGFCIMDNHKERIANFKIEPPGLFRGRGNHPKMGMLKRRIMPEDIIINCSKDAKVPSPPPGHKWKEVRHDNKVTWLVSWTENIQGSIKYIMLNPSSRIKGEKDWQKYETARRLKKCVDKIRNQYREDWKSKEMKVRQRAVALYFIDKLALRAGNEKEEGETADTVGCCSLRVEHINLHPELDGQEYVVEFDFLGKDSIRYYNKVPVEKRVFKNLQLFMENKQPEDDLFDRLNTGILNKHLQDLMEGLTAKVFRTYNASITLQQQLKELTAPDENIPAKILSYNRANRAVAILCNHQRAPPKTFEKSMMNLQTKIDAKKEQLADARRDLKSAKADAKVMKDAKTKKVVESKKKAVQRLEEQLMKLEVQATDREENKQIALGTSKLNYLDPRITVAWCKKWGVPIEKIYNKTQREKFAWAIDMADEDYEF
B5: Diablo homolog, mitochondrial (protein, UniProt Q9NR28 22-239, looked up)
Diablo IAP-binding …: LCVPVVANFKKRCFSELIRPWHKTVTIGFGVTLCAVPIAQKSEPHSLSSEALMRRAVSLVTDSTSTFLSQTTYALIEAITEYTKAVYTLTSLYRQYTSLLGKMNSEEEDEVWQVIIGARAEMTSKHQEYLKLETTWMTAVGLSEMAAEAAYQTGADQASITARNHIQLVKLQVEEVHQLSRKAETKLAEAQIEELRQKTQEEGEERAESEQEAYLRED
B6: Disintegrin and metalloproteinase domain-containing protein 9 (protein, UniProt Q13443 29-819, looked up)
Disintegrin and …: AARPGFQQTSHLSSYEIITPWRLTRERREAPRPYSKQVSYVIQAEGKEHIIHLERNKDLLPEDFVVYTYNKEGTLITDHPNIQNHCHYRGYVEGVHNSSIALSDCFGLRGLLHLENASYGIEPLQNSSHFEHIIYRMDDVYKEPLKCGVSNKDIEKETAKDEEEEPPSMTQLLRRRRAVLPQTRYVELFIVVDKERYDMMGRNQTAVREEMILLANYLDSMYIMLNIRIVLVGLEIWTNGNLINIVGGAGDVLGNFVQWREKFLITRRRHDSAQLVLKKGFGGTAGMAFVGTVCSRSHAGGINVFGQITVETFASIVAHELGHNLGMNHDDGRDCSCGAKSCIMNSGASGSRNFSSCSAEDFEKLTLNKGGNCLLNIPKPDEAYSAPSCGNKLVDAGEECDCGTPKECELDPCCEGSTCKLKSFAECAYGDCCKDCRFLPGGTLCRGKTSECDVPEYCNGSSQFCQPDVFIQNGYPCQNNKAYCYNGMCQYYDAQCQVIFGSKAKAAPKDCFIEVNSKGDRFGNCGFSGNEYKKCATGNALCGKLQCENVQEIPVFGIVPAIIQTPSRGTKCWGVDFQLGSDVPDPGMVNEGTKCGAGKICRNFQCVDASVLNYDCDVQKKCHGHGVCNSNKNCHCENGWAPPNCETKGYGGSVDSGPTYNEMNTALRDGLLVFFFLIVPLIVCAIFIFIKRDQLWRSYFRKKRSQTYESDGKNQANPSRQPGSVPRHVSPVTPPREVPIYANRFAVPTYAAKQPQQFPSRPPPPQPKVSSQGNLIPARPAPAPPLYSSLT
B7: Desmocollin-3 (protein, UniProt Q14574 136-896, looked up)
Desmocollin-3: RWAPIPCSMQENSLGPFPLFLQQVESDAAQNYTVFYSISGRGVDKEPLNLFYIERDTGNLFCTRPVDREEYDVFDLIAYASTADGYSADLPLPLPIRVEDENDNHPVFTEAIYNFEVLESSRPGTTVGVVCATDRDEPDTMHTRLKYSILQQTPRSPGLFSVHPSTGVITTVSHYLDREVVDKYSLIMKVQDMDGQFFGLIGTSTCIITVTDSNDNAPTFRQNAYEAFVEENAFNVEILRIPIEDKDLINTANWRVNFTILKGNENGHFKISTDKETNEGVLSVVKPLNYEENRQVNLEIGVNNEAPFARDIPRVTALNRALVTVHVRDLDEGPECTPAAQYVRIKENLAVGSKINGYKAYDPENRNGNGLRYKKLHDPKGWITIDEISGSIITSKILDREVETPKNELYNITVLAIDKDDRSCTGTLAVNIEDVNDNPPEILQEYVVICKPKMGYTDILAVDPDEPVHGAPFYFSLPNTSPEISRLWSLTKVNDTAARLSYQKNAGFQEYTIPITVKDRAGQAATKLLRVNLCECTHPTQCRATSRSTGVILGKWAILAILLGIALLFSVLLTLVCGVFGATKGKRFPEDLAQQNLIISNTEAPGDDRVCSANGFMTQTTNNSSQGFCGTMGSGMKNGGQETIEMMKGGNQTLESCRGAGHHHTLDSCRGGHTEVDNCRYTYSEWHSFTQPRLGEKLHRCNQNEDRMPSQDYVLTYNYEGRGSPAGSVGCCSEKQEEDGLDFLNNLEPKFITLAEACTKR

One series has as its system proteins in oral lavage. The series is described as follows: Abundance of proteins in human oral lavage (SomaLogic), TABLE 1. The note with it: abundance in oral lavage; high bleeders (gingivitis), baseline. The series is classed as in vivo.
With B1, the “Means (Original Scale) High bleeder BL” value was 17308.

In the case of B2, the “Means (Original Scale) High bleeder BL” value came out at 5329.

In the case of B3, the “Means (Original Scale) High bleeder BL” value came out at 12244.

Regarding B4, the “Means (Original Scale) High bleeder BL” value was 399.

For B5, the “Means (Original Scale) High bleeder BL” value is given as 1487.

In the case of B6, the “Means (Original Scale) High bleeder BL” value amounted to 768.

Turning to B7, the “Means (Original Scale) High bleeder BL” value amounted to 752.

The same series, now with this note: abundance in oral lavage; high bleeders, week 4 of investigative products.
For the molecule B1, the “Means (Original Scale) High bleeder W4” value is 8283.

With B2, the “Means (Original Scale) High bleeder W4” value stood at 3399.

Regarding B3, the “Means (Original Scale) High bleeder W4” value came to 4796.

For the molecule B4, the “Means (Original Scale) High bleeder W4” value is 193.

On to B5, for which the “Means (Original Scale) High bleeder W4” value came to 827.

Turning to B6, the “Means (Original Scale) High bleeder W4” value is listed as 530.

B7: the “Means (Original Scale) High bleeder W4” value is 317.

Staying with this series, now noted: abundance in oral lavage; low bleeders (healthy), baseline.
With B1, the “Means (Original Scale) Low bleeder BL” value came to 6730.

As to B2, the “Means (Original Scale) Low bleeder BL” value worked out at 1303.

On to B3, for which the “Means (Original Scale) Low bleeder BL” value is given as 3634.

Consider B4, for which the “Means (Original Scale) Low bleeder BL” value came to 79.

On to B5, for which the “Means (Original Scale) Low bleeder BL” value worked out at 366.

Consider B6, for which the “Means (Original Scale) Low bleeder BL” value is 113.

With B7, the “Means (Original Scale) Low bleeder BL” value is 201.

The series is the same for the next values; noted with them: oral lavage; high bleeders vs low bleeders at baseline.
Take B1: the “Fold Change High bleeder BL vs Low bleeder BL” value (“Fold Change High bleeder BL” for short) is recorded as 2.72.

Regarding B2, the “Fold Change High bleeder BL” value was 3.90.

For B3, the “Fold Change High bleeder BL” value is reported as 3.45.

Take B4: the “Fold Change High bleeder BL” value amounted to 4.09.

As for B5, the “Fold Change High bleeder BL” value came to 3.96.

B6: the “Fold Change High bleeder BL” value is on record as 6.05.

Turning to B7, the “Fold Change High bleeder BL” value is given as 2.67.

Still in this series, the particulars now being: oral lavage; week 4 of investigative products vs baseline, high bleeders.
Regarding B1, the “Fold Change High bleeder W4 vs High bleeder BL” value (“Fold Change High bleeder W4” below) was 0.50.

As to B2, the “Fold Change High bleeder W4” value was found to be 0.68.

For the molecule B3, the “Fold Change High bleeder W4” value is reported as 0.44.

In the case of B4, the “Fold Change High bleeder W4” value amounted to 0.59.

In the case of B5, the “Fold Change High bleeder W4” value is 0.60.

Turning to B6, the “Fold Change High bleeder W4” value worked out at 0.74.

With B7, the “Fold Change High bleeder W4” value is on record as 0.53.

These data come from patent publication US20180320217A1, “METHODS FOR SAMPLING AND MEASURING ORAL LAVAGE PROTEINS” (The Procter & Gamble Company, priority 2017, published 2018).
